From patent publication US4658016 (dated 1987)

Experiment: general procedure: solution-phase peptide synthesis; DCC/HOObt with N-ethylmorpholine; Z-Arg(Z2)-OTcp active ester with HOBt
[1] = late stage modification step, diacetate
[2] = late stage modification step, acetate

Row | Substance | step yield (coupling step, acetate) | further results
1 | Arg--Lys--Glu--Val--Trp cyclohexyl ester diacetate | – | step yield [1]: 44%
2 | Arg--Lys--Glu--Val--Trp isobutylamide diacetate | – | step yield [1]: 46%
3 | Z--Arg(Z2)--Lys(Z)--D--Aad(OBzl)--Val--OBu^t | 68.3% | –
4 | Z--Arg(Z2)--Lys(Z)--D--Aad(OBzl)--Val--OH | – | step yield [2]: 74.3%
5 | Z--Arg(Z2)--Lys(Z)--D--Aad(OBzl)--Val--Trp cyclohexyl ester | 83.3% | –
6 | Z--Arg(Z2)--Lys(Z)--D--Aad(OBzl)--Val--Trp isobutylamide | 85.6% | –
7 | Z--Arg(Z2)--Lys(Z)--D--Aad(OBzl)--Val--Tyr--OBzl | 88.4% | –
8 | Z--Arg(Z2)--Lys(Z)--D--Aad(OBzl)Val--Trp--OBzl | 84.2% | –
9 | Z--Arg(Z2)--Lys(Z)--Glu(OBzl)--Val--OBu^t | 91% | –
10 | Z--Arg(Z2)--Lys(Z)--Glu(OBzl)--Val--OH | – | step yield [2]: 83.2%
11 | Z--Arg(Z2)--Lys(Z)--Glu(OBzl)--Val--Trp cyclohexyl ester | 86% | –
12 | Z--Arg(Z2)--Lys(Z)--Glu(OBzl)--Val--Trp--OBzl | 81.3% | –
